The target in test [1] is CNOT7/CAF1 (human) (UniProt Q9UIV1). As to the kind of experiment: co-purification (chromatographic separation); heterodimeric subcomplexes produced in and purified from BL21 (DE3) Star E. coli.
The target of test [2] is CNOT1 (human) (UniProt A5YKK6). The experiment in a line: co-purification (affinity chromatography); four full-length proteins co-produced in baculovirus-infected Sf21 cells; heterotetrameric subcomplex purified by affinity chromatography; tagged subunit not stated.

Sequences of proteins named here, by UniProt entry; tags and fusion partners are left off.
UniProt Q9UIV1: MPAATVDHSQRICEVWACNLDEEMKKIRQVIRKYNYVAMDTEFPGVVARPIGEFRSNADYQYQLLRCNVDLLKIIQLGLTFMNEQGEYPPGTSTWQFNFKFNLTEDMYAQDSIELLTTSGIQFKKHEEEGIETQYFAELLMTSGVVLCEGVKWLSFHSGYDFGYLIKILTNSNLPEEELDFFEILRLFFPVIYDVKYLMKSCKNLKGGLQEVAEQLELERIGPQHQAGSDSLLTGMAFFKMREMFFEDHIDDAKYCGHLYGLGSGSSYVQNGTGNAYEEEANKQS
UniProt A5YKK6: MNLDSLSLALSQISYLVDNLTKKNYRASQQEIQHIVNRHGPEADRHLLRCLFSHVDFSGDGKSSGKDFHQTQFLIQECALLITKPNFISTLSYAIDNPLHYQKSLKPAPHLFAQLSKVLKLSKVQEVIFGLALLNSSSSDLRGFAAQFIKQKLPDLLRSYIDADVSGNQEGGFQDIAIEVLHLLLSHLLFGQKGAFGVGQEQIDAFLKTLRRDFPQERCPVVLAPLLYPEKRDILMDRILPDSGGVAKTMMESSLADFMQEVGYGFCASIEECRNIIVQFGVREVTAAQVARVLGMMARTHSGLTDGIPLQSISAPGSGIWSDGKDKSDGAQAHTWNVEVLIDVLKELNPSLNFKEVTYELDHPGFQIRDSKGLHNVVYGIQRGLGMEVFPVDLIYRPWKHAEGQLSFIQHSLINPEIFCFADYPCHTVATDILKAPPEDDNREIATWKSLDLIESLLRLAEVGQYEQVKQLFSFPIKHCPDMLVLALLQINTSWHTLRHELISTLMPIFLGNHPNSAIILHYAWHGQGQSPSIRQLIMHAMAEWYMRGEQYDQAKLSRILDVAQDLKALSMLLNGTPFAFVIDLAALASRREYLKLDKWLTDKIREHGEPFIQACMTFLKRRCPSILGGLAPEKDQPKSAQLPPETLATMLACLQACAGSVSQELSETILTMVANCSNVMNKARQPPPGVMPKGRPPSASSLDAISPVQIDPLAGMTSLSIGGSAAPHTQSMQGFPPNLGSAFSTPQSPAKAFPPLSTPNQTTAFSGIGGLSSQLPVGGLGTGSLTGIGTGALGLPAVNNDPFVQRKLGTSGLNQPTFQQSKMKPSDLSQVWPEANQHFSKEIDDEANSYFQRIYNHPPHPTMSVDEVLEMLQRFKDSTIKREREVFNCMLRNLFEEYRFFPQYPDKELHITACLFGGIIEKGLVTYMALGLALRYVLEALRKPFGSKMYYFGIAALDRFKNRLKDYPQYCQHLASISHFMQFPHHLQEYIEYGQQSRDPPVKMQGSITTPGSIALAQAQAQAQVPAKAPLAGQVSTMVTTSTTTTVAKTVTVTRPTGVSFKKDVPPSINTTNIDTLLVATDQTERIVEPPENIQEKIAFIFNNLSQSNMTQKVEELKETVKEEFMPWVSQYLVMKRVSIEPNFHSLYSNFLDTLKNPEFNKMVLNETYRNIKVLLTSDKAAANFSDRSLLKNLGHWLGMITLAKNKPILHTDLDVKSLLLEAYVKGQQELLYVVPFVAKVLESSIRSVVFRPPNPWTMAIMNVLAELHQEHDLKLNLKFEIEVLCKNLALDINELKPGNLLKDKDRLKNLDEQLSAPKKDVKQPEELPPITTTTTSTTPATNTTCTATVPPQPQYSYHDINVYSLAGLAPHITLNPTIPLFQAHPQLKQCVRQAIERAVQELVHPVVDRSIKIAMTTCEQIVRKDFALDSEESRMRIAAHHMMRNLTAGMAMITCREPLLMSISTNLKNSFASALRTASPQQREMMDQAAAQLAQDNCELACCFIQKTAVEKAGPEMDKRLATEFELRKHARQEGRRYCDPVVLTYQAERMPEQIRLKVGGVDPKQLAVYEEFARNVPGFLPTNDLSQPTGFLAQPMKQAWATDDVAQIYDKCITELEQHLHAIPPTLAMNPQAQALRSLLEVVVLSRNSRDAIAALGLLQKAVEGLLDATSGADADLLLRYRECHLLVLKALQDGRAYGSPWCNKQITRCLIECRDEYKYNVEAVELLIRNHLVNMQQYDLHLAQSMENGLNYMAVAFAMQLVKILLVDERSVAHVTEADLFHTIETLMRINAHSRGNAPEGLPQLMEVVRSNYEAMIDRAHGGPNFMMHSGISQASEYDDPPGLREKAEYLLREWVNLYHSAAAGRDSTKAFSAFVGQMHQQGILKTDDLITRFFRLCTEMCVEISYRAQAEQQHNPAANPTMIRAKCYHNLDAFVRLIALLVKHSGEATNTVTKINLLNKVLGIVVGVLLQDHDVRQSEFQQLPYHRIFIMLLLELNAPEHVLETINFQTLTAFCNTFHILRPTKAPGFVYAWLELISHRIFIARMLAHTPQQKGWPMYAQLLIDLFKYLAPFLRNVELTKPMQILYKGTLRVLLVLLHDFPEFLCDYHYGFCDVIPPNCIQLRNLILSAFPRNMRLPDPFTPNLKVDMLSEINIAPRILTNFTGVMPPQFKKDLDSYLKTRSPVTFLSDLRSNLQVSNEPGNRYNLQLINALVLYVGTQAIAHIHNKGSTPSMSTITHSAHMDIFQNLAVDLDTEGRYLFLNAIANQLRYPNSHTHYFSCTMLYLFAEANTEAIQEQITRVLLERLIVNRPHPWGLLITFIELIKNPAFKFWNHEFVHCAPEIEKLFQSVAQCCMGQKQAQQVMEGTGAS
UniProt Q9ULM6: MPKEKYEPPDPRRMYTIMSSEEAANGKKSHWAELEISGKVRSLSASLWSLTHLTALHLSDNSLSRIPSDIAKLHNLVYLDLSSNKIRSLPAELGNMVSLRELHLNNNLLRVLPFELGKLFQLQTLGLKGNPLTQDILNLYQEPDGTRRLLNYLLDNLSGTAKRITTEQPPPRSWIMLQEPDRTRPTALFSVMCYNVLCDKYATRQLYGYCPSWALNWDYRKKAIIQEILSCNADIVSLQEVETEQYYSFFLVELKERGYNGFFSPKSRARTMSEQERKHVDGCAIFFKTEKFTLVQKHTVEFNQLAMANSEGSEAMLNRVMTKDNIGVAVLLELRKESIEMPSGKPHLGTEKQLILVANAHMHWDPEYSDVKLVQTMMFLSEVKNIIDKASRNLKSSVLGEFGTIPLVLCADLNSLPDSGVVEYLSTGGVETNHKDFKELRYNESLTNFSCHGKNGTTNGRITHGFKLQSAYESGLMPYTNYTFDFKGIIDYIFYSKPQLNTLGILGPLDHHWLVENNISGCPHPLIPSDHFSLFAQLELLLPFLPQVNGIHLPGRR
UniProt O75175: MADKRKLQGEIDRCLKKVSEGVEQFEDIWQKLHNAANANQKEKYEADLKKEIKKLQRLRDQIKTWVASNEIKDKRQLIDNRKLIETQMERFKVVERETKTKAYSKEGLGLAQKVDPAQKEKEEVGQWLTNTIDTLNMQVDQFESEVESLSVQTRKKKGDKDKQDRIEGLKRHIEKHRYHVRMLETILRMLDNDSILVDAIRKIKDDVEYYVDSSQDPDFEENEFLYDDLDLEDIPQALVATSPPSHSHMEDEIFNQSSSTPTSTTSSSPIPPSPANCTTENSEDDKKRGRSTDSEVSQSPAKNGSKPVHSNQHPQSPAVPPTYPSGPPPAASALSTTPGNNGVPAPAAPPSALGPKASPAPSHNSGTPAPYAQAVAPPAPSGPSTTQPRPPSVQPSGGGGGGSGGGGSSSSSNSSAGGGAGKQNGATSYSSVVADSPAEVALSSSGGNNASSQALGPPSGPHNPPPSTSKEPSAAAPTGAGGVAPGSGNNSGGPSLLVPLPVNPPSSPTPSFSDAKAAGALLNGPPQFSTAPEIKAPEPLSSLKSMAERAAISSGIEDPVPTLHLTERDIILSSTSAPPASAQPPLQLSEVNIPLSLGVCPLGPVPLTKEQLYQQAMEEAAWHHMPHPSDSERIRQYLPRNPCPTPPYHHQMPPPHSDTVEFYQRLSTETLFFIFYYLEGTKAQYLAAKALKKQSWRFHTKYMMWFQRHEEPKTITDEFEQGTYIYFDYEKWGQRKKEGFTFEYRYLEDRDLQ
UniProt Q9NZN8: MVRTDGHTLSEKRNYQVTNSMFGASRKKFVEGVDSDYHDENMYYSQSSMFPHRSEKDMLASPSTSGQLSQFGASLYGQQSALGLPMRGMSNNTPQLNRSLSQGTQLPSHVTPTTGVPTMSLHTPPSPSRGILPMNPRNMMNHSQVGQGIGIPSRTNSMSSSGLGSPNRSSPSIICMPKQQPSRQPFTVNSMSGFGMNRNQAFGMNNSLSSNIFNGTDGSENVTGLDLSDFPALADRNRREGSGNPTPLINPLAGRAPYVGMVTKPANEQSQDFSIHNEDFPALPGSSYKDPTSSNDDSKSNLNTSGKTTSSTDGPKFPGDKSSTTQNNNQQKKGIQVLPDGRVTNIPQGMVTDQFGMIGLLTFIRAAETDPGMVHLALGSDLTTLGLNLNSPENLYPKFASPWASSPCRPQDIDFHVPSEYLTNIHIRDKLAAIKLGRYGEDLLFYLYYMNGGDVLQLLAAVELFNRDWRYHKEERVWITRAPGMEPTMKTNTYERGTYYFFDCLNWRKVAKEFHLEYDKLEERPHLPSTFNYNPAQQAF
UniProt Q92600: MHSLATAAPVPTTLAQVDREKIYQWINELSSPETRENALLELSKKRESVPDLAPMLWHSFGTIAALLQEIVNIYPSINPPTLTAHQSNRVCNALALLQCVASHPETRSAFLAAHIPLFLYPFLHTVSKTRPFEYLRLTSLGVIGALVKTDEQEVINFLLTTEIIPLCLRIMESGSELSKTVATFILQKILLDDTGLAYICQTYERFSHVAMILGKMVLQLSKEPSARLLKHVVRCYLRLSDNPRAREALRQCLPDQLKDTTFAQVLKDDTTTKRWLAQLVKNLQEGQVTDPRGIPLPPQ

Results are given in words; binding and its absence hold for the method and conditions named. Some results given as binding are weak or reduced against the parent protein; the word gives no strength.

Regarding “CNOT6/CCR4a (from UniProt Q9ULM6 1-557) (enzyme)”, the binding entry in test [1] is on record as “binds”.

Regarding CNOT3 (from UniProt O75175 1-753), in test [2], the binding result is reported as “binds”.

With CNOT2 (from UniProt Q9NZN8 1-540), the binding result in test [2] is “binds”.

As to CNOT9/CAF40 (from UniProt Q92600 1-299), the binding entry in test [2] is given as “binds”.

The values are drawn from PMC11102861.
